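Human melanoma cells were exposed to a pair of drugs for 72 h in 1,536-well plates and read by automated microscopy after fixing and staining. Values are the number of DAPI-stained nuclei as a percentage of the DMSO control: 100 is no effect, lower means fewer cells. Concentrations were fixed for each drug; these are the higher of two levels. No replicate spread is given; individual values may be noisy.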
Only some of the drugs and lines screened are listed, without regard to their results.

Compounds and concentrations:
SNS-032: CC(C)(C)c1cnc(CSc2cnc(NC(=O)C3CCNCC3)s2)o1 at 0.05 µM
IMD-0354: O=C(Nc1cc(C(F)(F)F)cc(C(F)(F)F)c1)c1cc(Cl)ccc1O at 0.08 µM
FH535: Cc1cc([N+](=O)[O-])ccc1NS(=O)(=O)c1cc(Cl)ccc1Cl at 5 µM
OSI-906: C[C@]1(O)C[C@@H](c2nc(-c3ccc4ccc(-c5ccccc5)nc4c3)c3c(N)nccn32)C1 at 2 µM
gemcitabine: Nc1ccn([C@@H]2O[C@H](CO)[C@@H](O)C2(F)F)c(=O)n1 at 0.002 µM
FK866: O=C(/C=C/c1cccnc1)NCCCCC1CCN(C(=O)c2ccccc2)CC1 at 0.05 µM
lenalidomide: Nc1cccc2c1CN(C1CCC(=O)NC1=O)C2=O (stereo not shown) at 5 µM
OSU-03012: NCC(=O)Nc1ccc(-n2nc(C(F)(F)F)cc2-c2ccc3c(ccc4ccccc43)c2)cc1 at 5 µM
GW441756: Cn1cc(/C=C2\C(=O)Nc3cccnc32)c2ccccc21 at 2 µM
ABT-263: CC1(C)CCC(c2ccc(Cl)cc2)=C(CN2CCN(c3ccc(C(=O)NS(=O)(=O)c4ccc(N[C@H](CCN5CCOCC5)CSc5ccccc5)c(S(=O)(=O)C(F)(F)F)c4)cc3)CC2)C1 at 2 µM

Combination | COLO 829 | WM451Lu | COLO 792 | WM3619 | C32 | COLO 800
GW441756 and SNS-032 | 89.0 | 56.1 | 76.1 | 59.3 | 79.1 | 75.5
SNS-032 and IMD-0354 | 109 | 99.7 | 92.7 | 79.5 | 79.0 | 67.5
GW441756 and FK866 | 68.7 | 123 | 74.3 | 81.0 | 100 | 34.7
GW441756 and gemcitabine | 84.3 | 80.7 | 108 | 78.8 | 107 | 78.4
SNS-032 and FK866 | 71.4 | 78.4 | 46.4 | 76.4 | 86.2 | 31.1
lenalidomide and FK866 | 67.0 | 89.3 | 31.7 | 95.9 | 108 | 44.4
FK866 and OSI-906 | 77.8 | 114 | 57.8 | 90.2 | 112 | 36.1
FK866 and ABT-263 | 33.6 | 129 | 4.6 | 57.4 | 77.7 | 12.6
GW441756 and OSI-906 | 97.4 | 89.3 | 104 | 100 | 97.4 | 69.4
SNS-032 and lenalidomide | 110 | 73.5 | 99.3 | 79.7 | 84.7 | 69.5
lenalidomide and GW441756 | 94.8 | 96.2 | 96.4 | 67.4 | 109 | 52.3
OSU-03012 and GW441756 | 51.8 | 48.9 | 68.1 | 55.2 | 106 | 60.1
IMD-0354 and FK866 | 63.0 | 108 | 32.6 | 75.3 | 99.5 | 20.4
lenalidomide and ABT-263 | 83.6 | 107 | 20.4 | 74.9 | 74.6 | 45.7
ABT-263 and GW441756 | 114 | 100 | 29.8 | 78.7 | 88.0 | 61.0
ABT-263 and IMD-0354 | 106 | 71.4 | 20.0 | 93.7 | 90.2 | 82.4
IMD-0354 and gemcitabine | 41.8 | 53.8 | 71.1 | 44.8 | 87.0 | 76.5
FH535 and FK866 | 51.3 | 91.0 | 37.0 | 72.7 | 109 | 34.3
IMD-0354 and OSI-906 | 95.9 | 97.2 | 108 | 110 | 116 | 53.3
ABT-263 and gemcitabine | 41.5 | 28.8 | 1.1 | 28.7 | 50.8 | 10.4
OSU-03012 and FK866 | 46.9 | 90.8 | 29.0 | 59.1 | 114 | 14.3
FH535 and gemcitabine | 64.8 | 50.5 | 68.5 | 32.5 | 93.7 | 85.2
OSI-906 and OSU-03012 | 51.2 | 84.6 | 45.0 | 7.2 | 86.6 | 27.2
SNS-032 and ABT-263 | 100 | 39.6 | 18.3 | 46.3 | 54.9 | 17.7
OSI-906 and SNS-032 | 90.5 | 83.6 | 64.1 | 61.0 | 81.2 | 45.4
OSU-03012 and gemcitabine | 46.0 | 53.6 | 43.5 | 38.3 | 99.1 | 60.1

Source: doi:10.1371/journal.pone.0140310, primary screening data, rounded.